{"source": "PubChem BioAssay AID1224829 (NIAID, 2016)", "aim": "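Genes needed for LPS-driven NF-kappaB p65 nuclear entry in mouse macrophages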 (follow-up of hits)", "cells": "mouse RAW264.7 G9 macrophage reporter cells", "reagent": "single siRNA against mouse genes, 100 nM", "duration": "2 days of siRNA knock-down, then 40 min of LPS before fixing", "challenge": "LPS (Salmonella minnesota R595) at 10 ng/ml", "detection": "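High-content images after 40 min LPS exposure; GFP-p65 nucleus to surrounding ring signal ratio, normalised to plate median and non-targeting control wells, expressed as z-score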", "reading the numbers": "p65 translocation z-score and gene median z-score, per vendor: higher = more nuclear NF-kappaB p65 after LPS", "call rule": "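Active means the replicate-mean z-score lies beyond plus or minus 2, in either direction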", "meaning of the calls": "active = changed p65 translocation (either direction); inactive = no clear change", "note": "The deposit covers about 3,800 reagents; this is a part drawn at random. 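Calls cover raised and lowered translocation; gene median uses one vendor's three siRNAs; qiagen siRNAs acted more weakly than ambion siRNAs.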 A number with no mark means an inactive call. Reagents against one gene are numbered here."}
{"Target gene": "Fech", "reagent no.": 1, "siRNA vendor or control pool": "ambion single siRNA", "p65 translocation z-score, replicate mean": "-3.87 (active)", "p65 translocation z-score, replicate 1": -3.87, "gene median z-score, per vendor": -3.79}
{"Target gene": "Fech", "reagent no.": 2, "siRNA vendor or control pool": "ambion single siRNA", "p65 translocation z-score, replicate mean": "-3.55 (active)", "p65 translocation z-score, replicate 1": -3.39, "p65 translocation z-score, replicate 2": -3.71, "gene median z-score, per vendor": -3.79}
{"Target gene": "Fech", "reagent no.": 3, "siRNA vendor or control pool": "ambion single siRNA", "p65 translocation z-score, replicate mean": "-4.13 (active)", "p65 translocation z-score, replicate 1": -4.13, "gene median z-score, per vendor": -3.79}
{"Target gene": "Fech", "reagent no.": 4, "siRNA vendor or control pool": "qiagen single siRNA", "p65 translocation z-score, replicate mean": "3.04 (active)", "p65 translocation z-score, replicate 1": 2.1, "p65 translocation z-score, replicate 2": 3.98, "gene median z-score, per vendor": 1.81}
{"Target gene": "Fech", "reagent no.": 5, "siRNA vendor or control pool": "qiagen single siRNA", "p65 translocation z-score, replicate mean": "2.81 (active)", "p65 translocation z-score, replicate 1": 1.51, "p65 translocation z-score, replicate 2": 4.11, "gene median z-score, per vendor": 1.81}
{"Target gene": "Fech", "reagent no.": 6, "siRNA vendor or control pool": "qiagen single siRNA", "p65 translocation z-score, replicate mean": "-2.39 (active)", "p65 translocation z-score, replicate 1": -1.68, "p65 translocation z-score, replicate 2": -3.1, "gene median z-score, per vendor": 1.81}
{"Target gene": "Or13a25", "reagent no.": 1, "siRNA vendor or control pool": "ambion single siRNA", "gene median z-score, per vendor": -0.591}
{"Target gene": "Or13a25", "reagent no.": 2, "siRNA vendor or control pool": "ambion single siRNA", "p65 translocation z-score, replicate mean": -1.55, "p65 translocation z-score, replicate 1": -1.23, "p65 translocation z-score, replicate 2": -1.88, "gene median z-score, per vendor": -0.591}
{"Target gene": "Or13a25", "reagent no.": 3, "siRNA vendor or control pool": "ambion single siRNA", "p65 translocation z-score, replicate mean": 0.405, "p65 translocation z-score, replicate 1": 0.761, "p65 translocation z-score, replicate 2": 0.0491, "gene median z-score, per vendor": -0.591}
{"Target gene": "Or13a25", "reagent no.": 4, "siRNA vendor or control pool": "qiagen single siRNA", "p65 translocation z-score, replicate mean": -0.802, "p65 translocation z-score, replicate 1": -0.034, "p65 translocation z-score, replicate 2": -1.57, "gene median z-score, per vendor": -1.13}
{"Target gene": "Or13a25", "reagent no.": 5, "siRNA vendor or control pool": "qiagen single siRNA", "p65 translocation z-score, replicate mean": -1.6, "p65 translocation z-score, replicate 1": -0.259, "p65 translocation z-score, replicate 2": -2.94, "gene median z-score, per vendor": -1.13}
{"Target gene": "Or13a25", "reagent no.": 6, "siRNA vendor or control pool": "qiagen single siRNA", "p65 translocation z-score, replicate mean": -1.29, "p65 translocation z-score, replicate 1": -1.9, "p65 translocation z-score, replicate 2": -0.688, "gene median z-score, per vendor": -1.13}
{"Target gene": "Tuba3b", "reagent no.": 1, "siRNA vendor or control pool": "ambion single siRNA", "p65 translocation z-score, replicate mean": -0.175, "p65 translocation z-score, replicate 1": 0.527, "p65 translocation z-score, replicate 2": -0.877, "gene median z-score, per vendor": -1.7}
{"Target gene": "Tuba3b", "reagent no.": 2, "siRNA vendor or control pool": "ambion single siRNA", "p65 translocation z-score, replicate mean": -1.7, "p65 translocation z-score, replicate 1": -2.33, "p65 translocation z-score, replicate 2": -1.06, "gene median z-score, per vendor": -1.7}
{"Target gene": "Tuba3b", "reagent no.": 3, "siRNA vendor or control pool": "ambion single siRNA", "p65 translocation z-score, replicate mean": "-2.77 (active)", "p65 translocation z-score, replicate 1": -2.88, "p65 translocation z-score, replicate 2": -2.67, "gene median z-score, per vendor": -1.7}
{"Target gene": "Tuba3b", "reagent no.": 4, "siRNA vendor or control pool": "qiagen single siRNA", "p65 translocation z-score, replicate mean": 1.41, "p65 translocation z-score, replicate 1": 0.0702, "p65 translocation z-score, replicate 2": 2.75, "gene median z-score, per vendor": 0.081}
{"Target gene": "Tuba3b", "reagent no.": 5, "siRNA vendor or control pool": "qiagen single siRNA", "p65 translocation z-score, replicate mean": 0.823, "p65 translocation z-score, replicate 1": 0.0918, "p65 translocation z-score, replicate 2": 1.55, "gene median z-score, per vendor": 0.081}
{"Target gene": "Tuba3b", "reagent no.": 6, "siRNA vendor or control pool": "qiagen single siRNA", "p65 translocation z-score, replicate mean": "-3.01 (active)", "p65 translocation z-score, replicate 1": -2.49, "p65 translocation z-score, replicate 2": -3.54, "gene median z-score, per vendor": 0.081}
{"Target gene": "Dpm2", "reagent no.": 1, "siRNA vendor or control pool": "ambion single siRNA", "p65 translocation z-score, replicate mean": -0.208, "p65 translocation z-score, replicate 1": 0.57, "p65 translocation z-score, replicate 2": -0.987, "gene median z-score, per vendor": -1.12}
{"Target gene": "Dpm2", "reagent no.": 2, "siRNA vendor or control pool": "ambion single siRNA", "p65 translocation z-score, replicate mean": -1.61, "p65 translocation z-score, replicate 1": -1.93, "p65 translocation z-score, replicate 2": -1.29, "gene median z-score, per vendor": -1.12}
{"Target gene": "Dpm2", "reagent no.": 3, "siRNA vendor or control pool": "ambion single siRNA", "p65 translocation z-score, replicate mean": 0.129, "p65 translocation z-score, replicate 1": 1.5, "p65 translocation z-score, replicate 2": -1.25, "gene median z-score, per vendor": -1.12}
{"Target gene": "Dpm2", "reagent no.": 4, "siRNA vendor or control pool": "qiagen single siRNA", "p65 translocation z-score, replicate mean": 1.75, "p65 translocation z-score, replicate 1": 0.683, "p65 translocation z-score, replicate 2": 2.82, "gene median z-score, per vendor": 0.446}
{"Target gene": "Dpm2", "reagent no.": 5, "siRNA vendor or control pool": "qiagen single siRNA", "p65 translocation z-score, replicate mean": 0.536, "p65 translocation z-score, replicate 1": 0.863, "p65 translocation z-score, replicate 2": 0.209, "gene median z-score, per vendor": 0.446}
{"Target gene": "Dpm2", "reagent no.": 6, "siRNA vendor or control pool": "qiagen single siRNA", "p65 translocation z-score, replicate mean": "-3.52 (active)", "p65 translocation z-score, replicate 1": -2.36, "p65 translocation z-score, replicate 2": -4.68, "gene median z-score, per vendor": 0.446}
{"Target gene": "Spp2", "reagent no.": 1, "siRNA vendor or control pool": "ambion single siRNA", "p65 translocation z-score, replicate mean": -1.87, "p65 translocation z-score, replicate 1": -1.87, "p65 translocation z-score, replicate 2": -1.88, "gene median z-score, per vendor": -2.07}
{"Target gene": "Spp2", "reagent no.": 2, "siRNA vendor or control pool": "ambion single siRNA", "p65 translocation z-score, replicate mean": -1.97, "p65 translocation z-score, replicate 1": -1.14, "p65 translocation z-score, replicate 2": -2.81, "gene median z-score, per vendor": -2.07}
{"Target gene": "Spp2", "reagent no.": 3, "siRNA vendor or control pool": "ambion single siRNA", "p65 translocation z-score, replicate mean": "-3.98 (active)", "p65 translocation z-score, replicate 1": -2.26, "p65 translocation z-score, replicate 2": -5.7, "gene median z-score, per vendor": -2.07}
{"Target gene": "Fads3", "reagent no.": 1, "siRNA vendor or control pool": "ambion single siRNA", "p65 translocation z-score, replicate mean": 0.156, "p65 translocation z-score, replicate 1": 0.51, "p65 translocation z-score, replicate 2": -0.198, "gene median z-score, per vendor": -0.179}
{"Target gene": "Fads3", "reagent no.": 2, "siRNA vendor or control pool": "ambion single siRNA", "p65 translocation z-score, replicate mean": 0.774, "p65 translocation z-score, replicate 1": 1.71, "p65 translocation z-score, replicate 2": -0.16, "gene median z-score, per vendor": -0.179}
{"Target gene": "Fads3", "reagent no.": 3, "siRNA vendor or control pool": "ambion single siRNA", "p65 translocation z-score, replicate mean": -1.75, "p65 translocation z-score, replicate 1": -2.63, "p65 translocation z-score, replicate 2": -0.873, "gene median z-score, per vendor": -0.179}
{"Target gene": "Fads3", "reagent no.": 4, "siRNA vendor or control pool": "qiagen single siRNA", "p65 translocation z-score, replicate mean": 0.909, "p65 translocation z-score, replicate 1": 0.371, "p65 translocation z-score, replicate 2": 1.45, "gene median z-score, per vendor": -0.569}
{"Target gene": "Fads3", "reagent no.": 5, "siRNA vendor or control pool": "qiagen single siRNA", "p65 translocation z-score, replicate mean": -0.415, "p65 translocation z-score, replicate 1": 0.679, "p65 translocation z-score, replicate 2": -1.51, "gene median z-score, per vendor": -0.569}
{"Target gene": "Fads3", "reagent no.": 6, "siRNA vendor or control pool": "qiagen single siRNA", "p65 translocation z-score, replicate mean": "-2.7 (active)", "p65 translocation z-score, replicate 1": -2.6, "p65 translocation z-score, replicate 2": -2.81, "gene median z-score, per vendor": -0.569}

A few values from the entries so far.
Fech #3, siRNA vendor or control pool ambion single siRNA, p65 translocation z-score, replicate 1: -4.13 (active)
Dpm2 #4, siRNA vendor or control pool qiagen single siRNA, p65 translocation z-score, replicate mean = 1.75
Fads3 #1, siRNA vendor or control pool ambion single siRNA, p65 translocation z-score, replicate mean → 0.156
